Values from PubChem BioAssay AID743121 (NCATS, 2013)
Here is an unselected part of about 26,000 deposited reagents. 167 of all reagents (0.63%) were called active. 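Calls are per gene from RSA p-values that are not deposited; an individual active-marked siRNA can sensitise only weakly.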 A number with no mark means an inactive call. The numbers tell different reagents against one gene apart. Not all columns of the deposit are shown.

Test: 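Genes whose silencing strengthens cell killing by camptothecin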 (primary screen)
Cells: MDA-MB-231 cells, a human breast cancer line
Knock-down reagent: single siRNA against human genes, 20 nM siRNA (0.8 pmol per well)
Duration: 120 h (drug added 48 h after transfection, read 72 h later)
Treatment: camptothecin 20 nM (about EC30) for 72 h; vehicle 0.1% DMSO in parallel plates
Detection: 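Cell viability by ATP luminescence (CellTiter-Glo) as % of non-targeting siRNA wells, and the log2 ratio of viability without drug over viability with camptothecin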
Direction: log2 vehicle/camptothecin viability: higher = stronger sensitisation to camptothecin; viability with camptothecin: higher = more viable cells
Call rule: 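Each gene scored by redundant siRNA activity (RSA) over its individual siRNA ratios; a gene is called active at p < 0.001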

JADE3 #1
- log2 vehicle/camptothecin viability: -0.0321
- viability with camptothecin (% of control): 39.5

JADE3 #2
- log2 vehicle/camptothecin viability: -0.15
- viability with camptothecin (% of control): 44.2

JADE3 #3
- log2 vehicle/camptothecin viability: -0.166
- viability with camptothecin (% of control): 101

JADE3 #4
- log2 vehicle/camptothecin viability: -0.403
- viability with camptothecin (% of control): 106

TRIML1 #1
- log2 vehicle/camptothecin viability: -0.138
- viability with camptothecin (% of control): 91.3

TRIML1 #2
- log2 vehicle/camptothecin viability: -0.105
- viability with camptothecin (% of control): 88.7

TRIML1 #3
- log2 vehicle/camptothecin viability: 0.272
- viability with camptothecin (% of control): 64.3

TRIML1 #4
- log2 vehicle/camptothecin viability: -0.41
- viability with camptothecin (% of control): 56.5

DOCK1 #1
- log2 vehicle/camptothecin viability: -0.178
- viability with camptothecin (% of control): 64

DOCK1 #2
- log2 vehicle/camptothecin viability: 0.0648
- viability with camptothecin (% of control): 89.7

DOCK1 #3
- log2 vehicle/camptothecin viability: -0.315
- viability with camptothecin (% of control): 108

DOCK1 #4
- log2 vehicle/camptothecin viability: -0.0437
- viability with camptothecin (% of control): 105

GRK4 #1
- log2 vehicle/camptothecin viability: -0.515
- viability with camptothecin (% of control): 87

GRK4 #2
- log2 vehicle/camptothecin viability: 0.00974
- viability with camptothecin (% of control): 83

GRK4 #3
- log2 vehicle/camptothecin viability: -0.598
- viability with camptothecin (% of control): 84.6

GRK4 #4
- log2 vehicle/camptothecin viability: 0.547
- viability with camptothecin (% of control): 67.3

Part of the list above, limited to “log2 vehicle/camptothecin viability”.
TRIML1 #4 = -0.41
DOCK1 #1 = -0.178
